For data set [1], the target named is T1, ORC2 (endogenous) (Homo sapiens) (UniProt Q13416).
T1 sequence (looked up, limits assumed): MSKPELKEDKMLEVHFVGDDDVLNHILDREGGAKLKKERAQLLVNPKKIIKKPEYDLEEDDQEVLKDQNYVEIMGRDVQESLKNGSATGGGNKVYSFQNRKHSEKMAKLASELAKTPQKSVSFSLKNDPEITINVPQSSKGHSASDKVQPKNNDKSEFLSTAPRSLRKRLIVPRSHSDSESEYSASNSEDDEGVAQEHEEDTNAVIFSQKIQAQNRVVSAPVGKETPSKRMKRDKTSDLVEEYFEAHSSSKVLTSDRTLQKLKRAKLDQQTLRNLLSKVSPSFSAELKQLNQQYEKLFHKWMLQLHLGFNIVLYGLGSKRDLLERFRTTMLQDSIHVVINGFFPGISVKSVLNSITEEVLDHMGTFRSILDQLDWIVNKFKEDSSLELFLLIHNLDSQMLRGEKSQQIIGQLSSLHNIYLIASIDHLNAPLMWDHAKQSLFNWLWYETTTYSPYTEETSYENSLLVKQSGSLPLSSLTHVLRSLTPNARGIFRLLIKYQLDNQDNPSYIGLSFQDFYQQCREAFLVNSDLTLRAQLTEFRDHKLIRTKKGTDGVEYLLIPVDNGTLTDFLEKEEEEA
Nature of the data set: binding assay. The conditions noted are these: ChIP in G1/S-arrested PEL cells and transfected 293 cells; protein in cells.

Chains of the proteins cited; added tags and fusions are not shown. Residues count along the entry.
UniProt P25205, 2-808: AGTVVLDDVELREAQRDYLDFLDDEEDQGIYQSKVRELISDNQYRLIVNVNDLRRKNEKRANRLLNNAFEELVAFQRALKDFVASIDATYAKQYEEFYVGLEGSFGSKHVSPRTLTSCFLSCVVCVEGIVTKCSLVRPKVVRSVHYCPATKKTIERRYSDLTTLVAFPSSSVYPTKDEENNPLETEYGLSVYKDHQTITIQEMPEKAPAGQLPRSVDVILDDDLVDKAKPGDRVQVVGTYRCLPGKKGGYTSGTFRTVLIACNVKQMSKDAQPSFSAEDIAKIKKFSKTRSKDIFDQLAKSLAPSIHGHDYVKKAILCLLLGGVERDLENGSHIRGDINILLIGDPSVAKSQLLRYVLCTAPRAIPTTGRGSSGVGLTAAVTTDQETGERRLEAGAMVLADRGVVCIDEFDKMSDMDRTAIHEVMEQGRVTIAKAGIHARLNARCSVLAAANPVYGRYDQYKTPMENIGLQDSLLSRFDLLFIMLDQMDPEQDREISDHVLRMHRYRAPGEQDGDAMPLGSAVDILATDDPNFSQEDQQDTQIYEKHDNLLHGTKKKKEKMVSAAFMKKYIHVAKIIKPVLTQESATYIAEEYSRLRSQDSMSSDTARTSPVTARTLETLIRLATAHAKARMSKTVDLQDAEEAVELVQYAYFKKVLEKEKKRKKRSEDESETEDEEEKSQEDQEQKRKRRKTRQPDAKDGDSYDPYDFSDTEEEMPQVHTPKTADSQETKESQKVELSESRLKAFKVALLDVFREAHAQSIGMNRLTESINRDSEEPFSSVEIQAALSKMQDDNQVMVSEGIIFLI

Data set [2] has as its target MCM3 (endogenous) (Homo sapiens) (UniProt P25205). Nature of the data set: binding assay. Conditions: ChIP in G1/S-arrested PEL cells and transfected 293 cells; protein in cells.

The exact form of at least one protein or probe is not confirmed. At least one result comes from cells or an extract, where the contact may be indirect. For some assays here: Tags and fusion partners may be left off the protein sequences shown.

Regarding “GGATCCCGGCGCGCCACCCTCCCCGGCAACAACCTGTTGCCATGTATGGCGATTTGTATCAGTCACAAGCACACAACCCCTGCTAGTATTAATGGTGTTTAAAACGTTCTACACGTACGGCGGACCGCATCCGTCGCAAGCACGCGCATATAACCCCCAAATGCACCATGATGAGAAGCACAGCCACGCGTCAAAAAACTTTAAAAACATCGTTATCCAATATCATTAAAAACCACACCGAAATTTACACAGGTAGCACGTCACCGTGTTAGTGTCACCCACTGTACACAAGGCGTGTCGTATATGTAGTATAGGTATTTGATGAGGCGGAAGCATATCCCGCTTCCAGCGAACGGAAATAAGAATCATCCGTTCCAGCATTTATTCAAAGAGGGCACAGAGGATTCACATTGTTTAGAGAGAGTTTTTCTTAGTCACCATTCCATACTTGGGCAGTATTGGCCTACGATTTGGGCGACGTTTCAGGCTGGTCTATTCTCCGTCCACTTTTCCCCGGCTATTCTGTCCCAGCATAGGCTCTTGAAATAAACAATGTTTACCGAGTAAAAGGTTCCACTCACCCTCATTTGTCGTTGCACCCATCCCCCCTTTGCTTAATCACCCGAAAACTAGAGGACACGGATGGAAAACATATCGCACGCGGGTTGTTTGAAAGTCAACAGCTACTTGTTTTTAATGAGGACAGATTTGGGCACAGGCCAGAGGGTAAAGCCCTACGTGTGCGCGGGGGGGGGGGTGTATACGCTGCGAAAACCTGCACGGTGCATAACACCCAGGGCGTCACGTCACATATCTCTGTGCACCCAAGTGGTTGT (double strand) [AT-rich region of G fragment]”, the binding result in data set [1] and in data set [2] was “binds” each time.

The record behind these values is patent publication US20090221468.
